Data source: PubChem BioAssay AID686937 (Drosophila RNAi Screening Center, 2013)
The deposit covers about 23,000 reagents; this is an unselected part of those that have a named target and a result. 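Reduced-secretion tags in replicate 1 do not always agree with the z-scores; no criterion for assigning the tags was given.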 Not all columns of the deposit are shown. The record does not give: the amount of reagent.

- Test: 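Knock-downs that reduce output of a secreted reporter enzyme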 (primary screen)
- Cell system: Drosophila S2 cells expressing secreted horseradish peroxidase
- Reagent: long dsRNA against Drosophila genes
- Time to read-out: about 5.5 days (5 days dsRNA, then 12 h reporter induction)
- Treatment: reporter expression induced after 5 days of dsRNA, read 12 h later; inducer not stated
- Detection: 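After 5 days of dsRNA and 12 h of reporter induction, medium peroxidase read by chemiluminescence and scored as per-plate z-score; higher values mean more reporter released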
- Direction: z-score: higher = more reporter secreted into medium

spn-B (GeneID 41746) [DRSC17063] scored z-score, replicate 1 = 0.4. CG5024 (GeneID 43117) [DRSC15698] gave z-score, replicate 1 = 0.2. After knock-down of CG10943 (GeneID 39462) [DRSC09805] the results were z-score, replicate 1 = 0.14. For CG7320 (GeneID 40010) [DRSC10810], the entry reads z-score, replicate 1 = 0.29. Depletion of SLO2 (GeneID 5740325) [DRSC06212] resulted in: z-score, replicate 1 = -2.07. SLO2 (GeneID 5740325) [DRSC06214] gave z-score, replicate 1 = 0.36.

SLO2 (GeneID 5740325) [DRSC06216] scored z-score, replicate 1 = 0.55. After knock-down of SLO2 (GeneID 5740325) [DRSC06218], the record shows z-score, replicate 1 = 0.23. Against SLO2 (GeneID 5740325) [DRSC06219], the entry reads z-score, replicate 1 = -1.67. Against COX6AL2 (GeneID 40066) [DRSC10082] the deposit lists z-score, replicate 1 = 0.17. Knock-down of CG17528 (GeneID 3355134) [DRSC07761] resulted in: z-score, replicate 1 = 0.24. After knock-down of CG11475 (GeneID 37513) [DRSC04113] the results were z-score, replicate 1 = 0.47.

For Cyp305a1 (GeneID 40161) [DRSC11126] the deposit lists z-score, replicate 1 = 0.38. With knock-down of sp3 (GeneID 42545) [DRSC16354], the screen gave z-score, replicate 1 = 0.34. Depletion of S-Lap1 (GeneID 38986) [DRSC10627] gave: z-score, replicate 1 = 0.07. Against crok (GeneID 34646) [DRSC02593] the deposit lists z-score, replicate 1 = 0.31. With knock-down of crok (GeneID 34646) [DRSC21349], the record shows z-score, replicate 1 = 0.2.

Part of the list above in another layout:
{"gene knocked down": "SLO2 (GeneID 5740325)", "amplicon": "DRSC06212", "z-score, replicate 1": -2.07}
{"gene knocked down": "SLO2 (GeneID 5740325)", "amplicon": "DRSC06214", "z-score, replicate 1": 0.36}
{"gene knocked down": "SLO2 (GeneID 5740325)", "amplicon": "DRSC06216", "z-score, replicate 1": 0.55}

Next entries follow:
Knock-down of crp (GeneID 34956) [DRSC03515] came out at: z-score, replicate 1 = -0.8. With knock-down of CG4839 (GeneID 34348) [DRSC02783] the results were z-score, replicate 1 = 0.53. CG4839 (GeneID 34348) [DRSC02784] scored z-score, replicate 1 = 0.15. With knock-down of SNRPG (GeneID 32636) [DRSC20207], the screen gave z-score, replicate 1 = -1.31. After knock-down of inaF-C (GeneID 5740497) [DRSC18902], the screen gave z-score, replicate 1 = 0.29. After knock-down of CG32793 (GeneID 31280) [DRSC18145], the record shows z-score, replicate 1 = 0.3.

CG32793 (GeneID 31280) [DRSC18194] gave z-score, replicate 1 = 0.28. After knock-down of Gr32a (GeneID 34545) [DRSC02400], the record shows z-score, replicate 1 = 0.28. Tep5Psi (GeneID 35250) [DRSC02183] gave z-score, replicate 1 = 0.19. Tep5Psi (GeneID 35250) [DRSC02184] showed z-score, replicate 1 = 0.48. After knock-down of Alms1a (GeneID 31393) [DRSC18558] the results were z-score, replicate 1 = 0.33. Against CG5327 (GeneID 37138) [DRSC06930], the entry reads z-score, replicate 1 = 0.3.

Against Cortactin (GeneID 42491) [DRSC16612] the deposit lists z-score, replicate 1 = 0.12. Depletion of CG6962 (GeneID 41436) [DRSC16153] resulted in: z-score, replicate 1 = -0.41. With knock-down of CG7208 (GeneID 42172) [DRSC16212] the results were z-score, replicate 1 = 0.41. Depletion of CG10205 (GeneID 36650) [DRSC05979] gave: z-score, replicate 1 = -0.85. nompA (GeneID 45587) [DRSC06329] gave z-score, replicate 1 = 0.37. After knock-down of CG11231 (retired record) (GeneID 43845) [DRSC17207], the screen gave z-score, replicate 1 = 0.5.

With knock-down of CG18048 (GeneID 40782) [DRSC12573], the record shows z-score, replicate 1 = 0.34. Against wmd (GeneID 37727) [DRSC04436] the deposit lists z-score, replicate 1 = 0.59. Knock-down of CG31058 (retired record) (GeneID 43320) [DRSC15840] came out at: z-score, replicate 1 = -3.23. Depletion of Nep1 (GeneID 31547) [DRSC18388] came out at: z-score, replicate 1 = 0.38. For Nep1 (GeneID 31547) [DRSC18389], the entry reads z-score, replicate 1 = -1.65.
